For at least one compound, name, drawing or mass did not settle the structure.
Assays:
Conditions in all cases: 4 μg/mL
[1] = tested on: MCF-7 cells (human breast adenocarcinoma); assay: Cytotoxicity assay (MTS reduction), MCF-7; assay type: cell-based
Protocol: (§1) MCF-7 cells (human breast adenocarcinoma), NCI-H460 cells (non-small-cell lung cancer) and SF-268cells (glioblastoma cells) were cultured in a Dulbecco's modified Eagle's medium supplemented with a 10% fetal calf serum and a nonessential amino acid (Life Technologies, Inc.) and maintained at 37° C. in a humidified incubator with 5% CO2.
(§2) Human cancer cells were seeded in 96-well microtiter plates at a density of 6500, 2500 and 7500 cells/well in 100 μl of culture medium for MCF-7, NCI-H460, and SF-268, respectively. […] Cells were treated with test compounds for 3 days. Cell viability was determined by the 5-[3-(carboxymethoxy)-phenyl]-2-(4,5-dimethylthiazolyl)-3-(4-sulfophenyl)tetrazolium salt (MTS) reduction assay. Actinomycin D (10 μM, final concentration) and DMSO (0.1%, final concentration) were used as positive and vehicle controls, respectively. Results were expressed as a % of the DMSO control.

[2] = tested on: NCI-H460 cells (non-small-cell lung cancer); assay: Cytotoxicity assay (MTS reduction), NCI-H460; assay type: cell-based, human
Protocol: as §1, §2

[3] = tested on: SF-268 cells (glioblastoma cells); assay: Cytotoxicity assay (MTS reduction), SF-268; assay type: cell-based, human
Protocol: as §1, §2

COc1ccc(-c2cnoc2-c2ccc(OC(C)C)cc2OCCCCCCCN2CCNCC2)cc1 [5k]
significantly inhibit the growth: inhibition of growth of MCF7 (in words) [1] | inhibition of growth of NCI-H460 (in words) [2] | inhibition of growth of SF-268 (in words) [3]
